PubChem BioAssay AID1671195, Yale University – 2021
The whole screen tested about 22,000 reagents; shown is a part drawn at random. Over the whole deposit, about 1,510 (6.9%) are marked active. 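Active includes knockdowns raising or lowering LDL uptake; positive z-scores mean more uptake, negative mean less.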

Aim: 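Regulators of LDL receptor activity judged by labelled LDL uptake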 (primary screen)
Cell system: human Huh7 hepatoma cells
Knock-down reagent: siRNA pool against human genes, 18 nM
Duration: about 2 to 2.5 days of knockdown, then 8 h LDL uptake
Conditions: DiI-labelled LDL at 30 µg/ml for 8 h, in lipoprotein-deficient serum medium
Detection: 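Fluorescent LDL signal imaged in cells, scaled to the plate median, robust z-score for each replicate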
Reading the numbers: robust z-score: higher = more LDL uptake after knockdown
Active means: 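a gene counts as active if at least two replicate z-scores exceed ±2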

CAMK2N1: robust z-score, replicate 1 = 0.249; robust z-score, replicate 2 = 0.35; robust z-score, replicate 3 = 0.757; outcome = inactive
ZSWIM5: robust z-score, replicate 1 = -0.956; robust z-score, replicate 2 = -2; robust z-score, replicate 3 = -2.05; outcome = active
LTK: robust z-score, replicate 1 = 0.277; robust z-score, replicate 2 = 1.24; robust z-score, replicate 3 = 0.353; outcome = inactive
PDGFA: robust z-score, replicate 1 = 0.233; robust z-score, replicate 2 = -1.31; robust z-score, replicate 3 = 0.378; outcome = inactive
SYT13: robust z-score, replicate 1 = -1.04; robust z-score, replicate 2 = -1.05; robust z-score, replicate 3 = -0.876; outcome = inactive
LYSMD1: robust z-score, replicate 1 = 2.56; robust z-score, replicate 2 = 1.04; robust z-score, replicate 3 = 1.02; outcome = inactive
BST2: robust z-score, replicate 1 = -0.943; robust z-score, replicate 2 = -0.993; robust z-score, replicate 3 = -1.51; outcome = inactive
ZNF540: robust z-score, replicate 1 = -2.23; robust z-score, replicate 2 = -1.83; robust z-score, replicate 3 = -2.08; outcome = active
UGT2B15: robust z-score, replicate 1 = -0.294; robust z-score, replicate 2 = -0.884; robust z-score, replicate 3 = -0.234; outcome = inactive
AMZ2: robust z-score, replicate 1 = -0.17; robust z-score, replicate 2 = -0.28; robust z-score, replicate 3 = -0.698; outcome = inactive
FAM133B: robust z-score, replicate 1 = 0.747; robust z-score, replicate 2 = 0.926; robust z-score, replicate 3 = 0.774; outcome = inactive
SOWAHB: robust z-score, replicate 1 = -0.727; robust z-score, replicate 2 = -0.572; robust z-score, replicate 3 = -0.154; outcome = inactive

Entries above whose target name starts with L or l (2):
LTK: robust z-score, replicate 1 = 0.277; robust z-score, replicate 2 = 1.24; robust z-score, replicate 3 = 0.353; outcome = inactive
LYSMD1: robust z-score, replicate 1 = 2.56; robust z-score, replicate 2 = 1.04; robust z-score, replicate 3 = 1.02; outcome = inactive
